The supplement of paper PMC10849652
This is one part of the list.

Protein sequences, listed by entry. Tags and fused reporters are not part of them. Lines headed by an entry give the natural chain unless they say otherwise; changes in a name come on top.
UniProt Q5D0E6: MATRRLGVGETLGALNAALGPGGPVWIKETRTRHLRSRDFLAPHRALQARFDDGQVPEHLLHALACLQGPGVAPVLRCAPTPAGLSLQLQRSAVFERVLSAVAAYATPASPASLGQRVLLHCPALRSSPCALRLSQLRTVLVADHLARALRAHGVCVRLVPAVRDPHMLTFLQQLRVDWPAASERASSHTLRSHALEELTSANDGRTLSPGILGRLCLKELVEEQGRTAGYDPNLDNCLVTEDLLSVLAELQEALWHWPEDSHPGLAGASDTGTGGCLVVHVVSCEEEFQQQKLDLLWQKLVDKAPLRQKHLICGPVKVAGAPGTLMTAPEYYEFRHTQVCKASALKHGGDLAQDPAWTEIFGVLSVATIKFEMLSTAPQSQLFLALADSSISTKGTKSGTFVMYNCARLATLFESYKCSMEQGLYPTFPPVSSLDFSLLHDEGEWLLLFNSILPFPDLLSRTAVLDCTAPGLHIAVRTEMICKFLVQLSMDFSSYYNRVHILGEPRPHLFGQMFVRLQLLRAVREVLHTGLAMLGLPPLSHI
UniProt Q8IZD4: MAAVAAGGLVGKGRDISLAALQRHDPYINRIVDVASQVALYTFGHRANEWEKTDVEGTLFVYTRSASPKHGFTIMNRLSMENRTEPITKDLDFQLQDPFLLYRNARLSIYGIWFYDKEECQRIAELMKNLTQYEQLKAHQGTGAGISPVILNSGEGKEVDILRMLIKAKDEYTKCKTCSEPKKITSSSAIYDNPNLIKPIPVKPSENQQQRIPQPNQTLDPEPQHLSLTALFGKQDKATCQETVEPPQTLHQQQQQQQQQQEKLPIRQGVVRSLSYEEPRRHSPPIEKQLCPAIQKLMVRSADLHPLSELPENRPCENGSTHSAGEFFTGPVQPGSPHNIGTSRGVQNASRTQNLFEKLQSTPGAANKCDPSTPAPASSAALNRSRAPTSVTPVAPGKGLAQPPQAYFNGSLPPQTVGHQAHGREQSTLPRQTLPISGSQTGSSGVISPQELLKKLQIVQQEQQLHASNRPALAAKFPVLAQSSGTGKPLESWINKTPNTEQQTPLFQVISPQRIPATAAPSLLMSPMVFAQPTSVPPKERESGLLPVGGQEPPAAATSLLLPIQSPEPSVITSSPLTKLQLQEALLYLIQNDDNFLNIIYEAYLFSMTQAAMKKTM
UniProt Q8TEH3: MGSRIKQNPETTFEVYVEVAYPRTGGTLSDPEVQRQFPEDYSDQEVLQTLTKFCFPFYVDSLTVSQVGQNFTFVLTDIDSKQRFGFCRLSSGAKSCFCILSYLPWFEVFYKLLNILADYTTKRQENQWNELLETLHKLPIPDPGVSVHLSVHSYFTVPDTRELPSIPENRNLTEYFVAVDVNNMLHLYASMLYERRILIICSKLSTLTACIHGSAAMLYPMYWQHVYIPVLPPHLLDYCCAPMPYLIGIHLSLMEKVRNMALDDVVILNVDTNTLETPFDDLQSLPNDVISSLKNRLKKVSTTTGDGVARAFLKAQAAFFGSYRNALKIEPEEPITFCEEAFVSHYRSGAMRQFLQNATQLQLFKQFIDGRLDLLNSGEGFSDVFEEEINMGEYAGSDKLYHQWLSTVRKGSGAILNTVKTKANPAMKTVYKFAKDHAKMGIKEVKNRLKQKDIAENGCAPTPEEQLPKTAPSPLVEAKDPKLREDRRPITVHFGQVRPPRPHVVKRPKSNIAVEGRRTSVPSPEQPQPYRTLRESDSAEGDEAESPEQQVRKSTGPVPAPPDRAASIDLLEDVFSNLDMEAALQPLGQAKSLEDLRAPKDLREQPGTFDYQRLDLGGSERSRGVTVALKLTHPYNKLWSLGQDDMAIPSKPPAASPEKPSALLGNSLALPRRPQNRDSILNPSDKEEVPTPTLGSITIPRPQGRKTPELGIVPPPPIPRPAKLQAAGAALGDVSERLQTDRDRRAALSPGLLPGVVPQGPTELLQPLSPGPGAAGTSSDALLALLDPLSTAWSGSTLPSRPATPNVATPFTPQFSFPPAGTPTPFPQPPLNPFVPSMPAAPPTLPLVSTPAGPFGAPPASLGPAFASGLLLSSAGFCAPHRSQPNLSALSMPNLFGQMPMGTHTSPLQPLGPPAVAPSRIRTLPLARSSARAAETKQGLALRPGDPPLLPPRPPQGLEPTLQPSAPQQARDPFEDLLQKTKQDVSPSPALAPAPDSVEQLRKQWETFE

Key:
Experiment in all cases: log2 fold change, soluble protein after heating vs DMSO (PISA); higher = thermal stabilisation; K562 lysate, 10 uM; active = over 0.2 and 3.5 SD of the protein, either way, in both replicates (recomputed)
vemurafenib = compound: CCCS(=O)(=O)Nc1ccc(F)c(C(=O)c2c[nH]c3ncc(-c4ccc(Cl)cc4)cc23)c1F [vemurafenib]
How it was run: (§1)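 K562 pellets were dounce-homogenised in PBS pH 7.4 with 1 mM MgCl2, and the crude extract at 1 mg/mL protein was treated with 10 μM compound for 30 min. Aliquots were heated for 3 min across 48°C-58°C, pooled, and brought to 0.5% NP-40 at 4°C; soluble protein was the supernatant after 21,000xg for 90 min. Soluble protein was quantified by TMTpro 16plex LC-MS/MS with channel sums equalised, and reported as log2 fold change in thermal stability against DMSO controls, with values from duplicates.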

[1] = compound: CCCS(=O)(=O)Nc1ccc(F)c(C(=O)c2c[nH]c3ncc(Cl)cc23)c1F
How it was run: as §1

[2] = compound: CC[C@@H]1C(=O)N(C)c2cnc(Nc3ccc(C(=O)NC4CCN(C)CC4)cc3OC)nc2N1C1CCCC1
How it was run: as §1

volasertib = compound: CC[C@@H]1C(=O)N(C)c2cnc(Nc3ccc(C(=O)N[C@H]4CC[C@H](N5CCN(CC6CC6)CC5)CC4)cc3OC)nc2N1C(C)C [volasertib]
How it was run: as §1

[3] = compound: CCn1cc(-c2ccnc3[nH]c(-c4cccc(CN(C)C)c4)cc23)c(-c2ccc(NC(=O)N(C)C)cc2)n1
How it was run: as §1

[4] = compound: CN1CCC(CNc2ccc3ncc(-c4cccc(OC(F)(F)F)c4)n3n2)CC1
How it was run: as §1

alvocidib = compound: CN1CC[C@H](c2c(O)cc(O)c3c(=O)cc(-c4ccccc4Cl)oc23)[C@H](O)C1 [alvocidib]
How it was run: as §1

[5] = compound: CNC(=O)C1=CC=CC=C1NC2=NC(=NC=C2Cl)NC3=C(C=C(C=C3)N4CCOCC4)OC
How it was run: as §1

defactinib = compound: CNC(=O)c1ccc(Nc2ncc(C(F)(F)F)c(NCc3nccnc3N(C)S(C)(=O)=O)n2)cc1 [defactinib]
How it was run: as §1

encorafenib = compound: COC(=O)N[C@@H](C)CNc1nccc(-c2cn(C(C)C)nc2-c2cc(Cl)cc(NS(C)(=O)=O)c2F)n1 [encorafenib]
How it was run: as §1

[6] = compound: COC(=O)[C@H](CCSC)NC(=O)C1=C(C=C(C=C1)NC[C@H](CS)N)C2=CC=CC=C2
How it was run: as §1

[7] = compound: COc1cc2nc(-c3cc(F)ccc3O)nc(N[C@@H]3CNC[C@H]3C(C)(C)O)c2cc1OC
How it was run: as §1

barasertib = compound: CCN(CCCOc1ccc2c(Nc3cc(CC(=O)Nc4cccc(F)c4)[nH]n3)ncnc2c1)CCOP(=O)(O)O [barasertib]
How it was run: as §1

saracatinib = compound: CN1CCN(CCOc2cc(OC3CCOCC3)c3c(Nc4c(Cl)ccc5c4OCO5)ncnc3c2)CC1 [saracatinib]
How it was run: as §1

sotrastaurin = compound: CN1CCN(c2nc(C3=C(c4c[nH]c5ccccc45)C(=O)NC3=O)c3ccccc3n2)CC1 [sotrastaurin]
How it was run: as §1

[8] = compound: CNc1nc(-c2ccc3c(N)n[nH]c3c2)cc(N2C[C@@H](C(=O)NC3CCCCC3)CC[C@H]2C)n1
How it was run: as §1

[9] = compound: CCn1c(C(=O)N(C2CC2)C2CC2)cc2c3c(ncn3C)c(Nc3cc(C)n(C)n3)nc21
How it was run: as §1

Tubastatin A = compound: CN1CCc2c(c3ccccc3n2Cc2ccc(C(=O)NO)cc2)C1 [Tubastatin A]
How it was run: as §1

alisertib = compound: COc1cc(Nc2ncc3c(n2)-c2ccc(Cl)cc2C(c2c(F)cccc2OC)=NC3)ccc1C(=O)O [alisertib]
How it was run: as §1

gefitinib = compound: COc1cc2ncnc(Nc3ccc(F)c(Cl)c3)c2cc1OCCCN1CCOCC1 [gefitinib]
How it was run: as §1

Measured: log2 fold change

DALRD3 (UniProt Q5D0E6)
inactive: vemurafenib -0.033 | [1] -0.025 | [2] -0.095 | volasertib -0.041 | [3] 0.003 | [4] 0.144 | alvocidib -0.016 | [5] -0.026 | defactinib 0.033 | encorafenib 0.054 | [6] -0.391 | [7] -0.004

DCP1B (UniProt Q8IZD4)
inactive: vemurafenib 0 | barasertib -0.078 | [2] 0.132 | [3] -0.062 | [4] -0.048 | saracatinib 0.202 | sotrastaurin -0.09 | alvocidib 0.089 | [5] -0.319 | defactinib 0.137 | [8] 0.131 | encorafenib 0.175 | [6] -0.046

DENND1A isoform 6 (UniProt Q8TEH3)
inactive: vemurafenib -0.208 | [1] 0.018 | barasertib -0.311 | [2] 0.07 | volasertib 0.01 | [9] 0.058 | saracatinib 0.116 | sotrastaurin -0.026 | Tubastatin A 0.004 | [5] -0.012 | defactinib 0.021 | [8] -0.099 | encorafenib 0.031 | [6] 0.075 | alisertib -0.233 | [7] 0.011 | gefitinib -0.089
